From the supplement of paper PMC10849652
The other results are listed elsewhere or left out.

The chains behind the UniProt entries cited, without tags or fusion partners. Where a name states a change or a piece, a line headed by the entry shows the natural chain unless it says otherwise.
UniProt P98172: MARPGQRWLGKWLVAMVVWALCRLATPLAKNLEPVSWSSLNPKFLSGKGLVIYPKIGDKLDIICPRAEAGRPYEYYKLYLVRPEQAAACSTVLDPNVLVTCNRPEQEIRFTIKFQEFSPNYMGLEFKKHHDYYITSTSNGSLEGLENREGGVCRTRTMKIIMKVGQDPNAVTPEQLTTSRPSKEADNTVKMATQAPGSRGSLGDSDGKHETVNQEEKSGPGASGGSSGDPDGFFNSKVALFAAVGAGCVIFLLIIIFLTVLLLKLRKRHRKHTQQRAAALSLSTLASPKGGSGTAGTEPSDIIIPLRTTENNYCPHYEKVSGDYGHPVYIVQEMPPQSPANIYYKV
UniProt Q7Z2Z2: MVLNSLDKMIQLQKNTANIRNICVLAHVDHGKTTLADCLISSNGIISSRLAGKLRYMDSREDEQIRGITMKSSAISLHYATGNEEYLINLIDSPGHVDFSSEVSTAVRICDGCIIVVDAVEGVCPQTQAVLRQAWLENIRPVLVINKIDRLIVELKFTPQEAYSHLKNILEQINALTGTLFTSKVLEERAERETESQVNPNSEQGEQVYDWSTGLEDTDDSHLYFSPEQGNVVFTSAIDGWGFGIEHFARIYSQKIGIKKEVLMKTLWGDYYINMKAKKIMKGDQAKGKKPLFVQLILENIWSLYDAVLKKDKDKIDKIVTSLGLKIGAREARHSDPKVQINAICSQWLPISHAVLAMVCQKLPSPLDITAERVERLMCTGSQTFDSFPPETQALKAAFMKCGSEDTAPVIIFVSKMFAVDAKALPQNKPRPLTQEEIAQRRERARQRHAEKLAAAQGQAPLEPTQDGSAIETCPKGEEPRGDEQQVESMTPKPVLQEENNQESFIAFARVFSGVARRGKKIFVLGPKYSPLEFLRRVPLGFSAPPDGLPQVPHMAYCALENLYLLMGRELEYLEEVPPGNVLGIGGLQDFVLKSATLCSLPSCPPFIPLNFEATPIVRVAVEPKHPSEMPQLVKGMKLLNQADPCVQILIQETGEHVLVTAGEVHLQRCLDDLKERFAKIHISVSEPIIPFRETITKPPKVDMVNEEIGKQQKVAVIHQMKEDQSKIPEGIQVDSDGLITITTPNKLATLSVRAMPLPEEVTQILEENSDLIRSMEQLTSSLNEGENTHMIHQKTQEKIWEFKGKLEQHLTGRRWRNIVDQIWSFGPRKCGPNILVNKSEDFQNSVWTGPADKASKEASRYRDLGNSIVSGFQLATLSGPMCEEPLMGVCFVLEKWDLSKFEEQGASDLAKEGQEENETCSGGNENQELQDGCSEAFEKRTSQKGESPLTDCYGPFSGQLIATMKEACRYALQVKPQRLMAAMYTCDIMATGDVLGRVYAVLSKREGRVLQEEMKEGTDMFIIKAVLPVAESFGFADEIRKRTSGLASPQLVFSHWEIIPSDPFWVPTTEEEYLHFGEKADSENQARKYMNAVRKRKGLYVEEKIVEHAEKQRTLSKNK
UniProt Q8N3D4: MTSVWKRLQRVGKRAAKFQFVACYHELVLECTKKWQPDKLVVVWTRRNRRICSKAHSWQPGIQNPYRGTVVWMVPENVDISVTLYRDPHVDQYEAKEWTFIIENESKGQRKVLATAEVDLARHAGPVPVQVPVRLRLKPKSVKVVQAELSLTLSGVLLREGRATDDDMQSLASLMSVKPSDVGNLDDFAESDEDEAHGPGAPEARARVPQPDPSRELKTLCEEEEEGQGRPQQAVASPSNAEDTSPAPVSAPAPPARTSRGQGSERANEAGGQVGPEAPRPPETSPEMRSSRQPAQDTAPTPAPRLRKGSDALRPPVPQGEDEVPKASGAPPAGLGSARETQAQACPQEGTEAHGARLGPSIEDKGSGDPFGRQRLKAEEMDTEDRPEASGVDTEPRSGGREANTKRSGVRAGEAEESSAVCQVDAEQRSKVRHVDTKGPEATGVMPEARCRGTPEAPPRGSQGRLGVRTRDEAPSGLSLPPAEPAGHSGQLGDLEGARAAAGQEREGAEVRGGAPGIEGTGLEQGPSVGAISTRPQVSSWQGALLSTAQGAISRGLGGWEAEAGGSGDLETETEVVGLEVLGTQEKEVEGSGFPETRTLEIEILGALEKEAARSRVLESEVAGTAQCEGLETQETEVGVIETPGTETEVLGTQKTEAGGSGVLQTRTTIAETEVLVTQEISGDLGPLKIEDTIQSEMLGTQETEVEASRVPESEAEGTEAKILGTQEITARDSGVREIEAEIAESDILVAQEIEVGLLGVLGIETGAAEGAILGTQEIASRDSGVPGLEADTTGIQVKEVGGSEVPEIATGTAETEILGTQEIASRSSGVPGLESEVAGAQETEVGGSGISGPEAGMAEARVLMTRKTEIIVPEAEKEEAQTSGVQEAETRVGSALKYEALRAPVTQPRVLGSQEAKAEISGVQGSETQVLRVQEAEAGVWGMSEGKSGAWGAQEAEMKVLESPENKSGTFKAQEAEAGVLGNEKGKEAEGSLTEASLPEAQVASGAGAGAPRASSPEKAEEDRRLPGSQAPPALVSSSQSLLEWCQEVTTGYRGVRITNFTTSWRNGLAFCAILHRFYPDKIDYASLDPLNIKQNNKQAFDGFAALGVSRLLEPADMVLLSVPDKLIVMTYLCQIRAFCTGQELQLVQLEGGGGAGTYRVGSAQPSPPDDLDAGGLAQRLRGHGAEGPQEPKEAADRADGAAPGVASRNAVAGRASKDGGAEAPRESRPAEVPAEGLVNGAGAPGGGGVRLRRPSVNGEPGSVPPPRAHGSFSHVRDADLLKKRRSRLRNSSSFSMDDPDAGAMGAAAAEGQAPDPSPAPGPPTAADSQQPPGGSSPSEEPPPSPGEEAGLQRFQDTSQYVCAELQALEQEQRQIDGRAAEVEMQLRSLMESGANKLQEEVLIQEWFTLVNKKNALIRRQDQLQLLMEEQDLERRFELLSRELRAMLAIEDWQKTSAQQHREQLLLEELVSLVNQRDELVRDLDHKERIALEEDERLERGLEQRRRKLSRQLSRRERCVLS
UniProt Q9NZN4: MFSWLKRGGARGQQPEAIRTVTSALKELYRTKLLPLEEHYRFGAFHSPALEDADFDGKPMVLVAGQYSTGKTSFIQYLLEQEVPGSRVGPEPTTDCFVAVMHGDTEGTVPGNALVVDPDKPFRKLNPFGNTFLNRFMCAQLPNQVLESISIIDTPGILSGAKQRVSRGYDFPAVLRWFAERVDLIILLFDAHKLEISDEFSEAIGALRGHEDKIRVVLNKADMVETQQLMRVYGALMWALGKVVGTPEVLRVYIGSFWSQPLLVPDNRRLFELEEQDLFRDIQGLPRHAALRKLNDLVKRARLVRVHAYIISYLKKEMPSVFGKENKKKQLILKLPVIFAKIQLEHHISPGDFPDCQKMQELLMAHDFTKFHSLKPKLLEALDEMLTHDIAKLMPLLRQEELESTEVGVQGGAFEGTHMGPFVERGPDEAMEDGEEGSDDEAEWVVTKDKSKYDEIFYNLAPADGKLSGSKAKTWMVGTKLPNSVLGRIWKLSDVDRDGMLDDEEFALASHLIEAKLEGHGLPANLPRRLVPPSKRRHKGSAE
UniProt Q92782, whole entry, looked up: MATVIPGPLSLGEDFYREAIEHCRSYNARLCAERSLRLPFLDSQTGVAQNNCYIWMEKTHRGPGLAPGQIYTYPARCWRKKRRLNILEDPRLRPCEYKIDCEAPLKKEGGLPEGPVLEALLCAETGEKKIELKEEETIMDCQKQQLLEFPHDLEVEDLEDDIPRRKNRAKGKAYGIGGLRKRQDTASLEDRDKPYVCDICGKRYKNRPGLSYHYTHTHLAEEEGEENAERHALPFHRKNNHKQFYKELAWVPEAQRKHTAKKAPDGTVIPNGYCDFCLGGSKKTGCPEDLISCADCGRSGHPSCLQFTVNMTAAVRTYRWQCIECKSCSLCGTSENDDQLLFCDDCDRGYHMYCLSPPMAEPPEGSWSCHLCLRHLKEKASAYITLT
UniProt Q9BQ95: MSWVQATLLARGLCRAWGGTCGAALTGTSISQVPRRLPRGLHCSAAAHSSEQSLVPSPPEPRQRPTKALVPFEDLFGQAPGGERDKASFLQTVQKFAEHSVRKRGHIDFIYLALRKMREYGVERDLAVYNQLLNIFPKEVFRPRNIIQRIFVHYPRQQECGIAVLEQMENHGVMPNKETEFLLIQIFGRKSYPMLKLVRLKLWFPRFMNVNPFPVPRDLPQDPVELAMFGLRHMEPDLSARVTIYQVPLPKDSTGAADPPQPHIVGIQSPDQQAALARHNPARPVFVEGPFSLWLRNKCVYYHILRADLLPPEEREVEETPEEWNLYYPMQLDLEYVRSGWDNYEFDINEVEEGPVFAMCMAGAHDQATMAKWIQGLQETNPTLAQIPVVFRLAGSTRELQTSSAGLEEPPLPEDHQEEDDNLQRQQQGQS
UniProt P63172, whole entry, looked up: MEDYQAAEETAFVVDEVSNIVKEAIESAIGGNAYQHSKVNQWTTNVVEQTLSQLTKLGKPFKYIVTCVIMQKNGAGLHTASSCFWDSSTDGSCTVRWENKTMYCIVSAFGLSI
UniProt Q14156: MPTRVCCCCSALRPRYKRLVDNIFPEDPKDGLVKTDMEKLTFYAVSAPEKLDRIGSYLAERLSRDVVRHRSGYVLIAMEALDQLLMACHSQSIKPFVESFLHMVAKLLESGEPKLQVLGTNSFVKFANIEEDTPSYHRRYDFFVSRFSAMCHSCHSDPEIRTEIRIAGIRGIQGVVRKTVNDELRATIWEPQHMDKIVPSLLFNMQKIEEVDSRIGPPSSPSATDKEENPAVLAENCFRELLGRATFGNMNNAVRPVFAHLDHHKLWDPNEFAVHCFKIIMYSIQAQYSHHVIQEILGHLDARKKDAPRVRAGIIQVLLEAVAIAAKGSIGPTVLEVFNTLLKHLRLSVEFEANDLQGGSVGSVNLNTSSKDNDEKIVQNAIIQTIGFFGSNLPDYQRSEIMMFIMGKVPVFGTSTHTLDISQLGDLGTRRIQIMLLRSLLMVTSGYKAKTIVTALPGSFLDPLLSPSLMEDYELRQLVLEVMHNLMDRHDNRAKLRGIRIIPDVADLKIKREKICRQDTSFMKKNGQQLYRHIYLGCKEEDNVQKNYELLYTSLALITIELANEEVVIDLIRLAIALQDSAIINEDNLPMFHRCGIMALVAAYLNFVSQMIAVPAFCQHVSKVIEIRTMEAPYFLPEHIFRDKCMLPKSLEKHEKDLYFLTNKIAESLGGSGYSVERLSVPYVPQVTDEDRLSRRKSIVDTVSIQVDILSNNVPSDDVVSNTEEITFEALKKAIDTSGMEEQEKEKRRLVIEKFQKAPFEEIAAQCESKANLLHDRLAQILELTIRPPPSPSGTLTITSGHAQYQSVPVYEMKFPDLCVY
UniProt P0DPD7: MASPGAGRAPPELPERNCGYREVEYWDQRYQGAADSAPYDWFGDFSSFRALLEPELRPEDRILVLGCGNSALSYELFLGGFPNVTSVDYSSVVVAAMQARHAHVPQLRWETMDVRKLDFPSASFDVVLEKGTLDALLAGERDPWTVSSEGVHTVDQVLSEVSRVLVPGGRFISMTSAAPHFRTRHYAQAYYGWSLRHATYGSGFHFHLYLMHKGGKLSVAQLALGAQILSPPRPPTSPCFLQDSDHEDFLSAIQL
UniProt Q9NTX5: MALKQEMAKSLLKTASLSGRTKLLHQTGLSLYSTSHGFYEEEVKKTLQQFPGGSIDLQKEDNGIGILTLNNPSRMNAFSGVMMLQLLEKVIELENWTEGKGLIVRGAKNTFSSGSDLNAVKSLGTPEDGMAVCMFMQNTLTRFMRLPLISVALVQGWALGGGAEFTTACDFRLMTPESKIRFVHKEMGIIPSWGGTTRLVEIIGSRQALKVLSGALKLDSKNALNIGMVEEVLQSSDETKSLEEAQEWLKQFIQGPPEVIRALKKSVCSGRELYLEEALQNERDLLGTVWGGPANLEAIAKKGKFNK
UniProt O77932: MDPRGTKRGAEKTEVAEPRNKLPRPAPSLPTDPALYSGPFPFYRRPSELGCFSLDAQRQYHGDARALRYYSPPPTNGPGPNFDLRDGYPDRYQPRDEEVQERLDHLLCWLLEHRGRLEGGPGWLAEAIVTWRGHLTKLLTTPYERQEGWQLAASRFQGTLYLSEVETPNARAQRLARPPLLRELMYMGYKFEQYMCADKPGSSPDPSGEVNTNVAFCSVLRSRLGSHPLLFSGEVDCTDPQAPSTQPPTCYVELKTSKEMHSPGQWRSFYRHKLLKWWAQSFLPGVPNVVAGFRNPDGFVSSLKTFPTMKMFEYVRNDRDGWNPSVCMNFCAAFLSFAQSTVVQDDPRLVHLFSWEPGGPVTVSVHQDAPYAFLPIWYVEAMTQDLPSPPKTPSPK

Assays:
Experiment in all cases: log2 fold change, soluble protein after heating vs DMSO (PISA); higher = thermal stabilisation; K562 lysate, 10 uM; active = over 0.2 and 3.5 SD of the protein, either way, in both replicates (recomputed)
[1] = compound: C#Cc1cccc(Nc2ncnc3cc(OCCOC)c(OCCOC)cc23)c1 [erlotinib]
Procedure, shortened: (§1)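 To prepare the extract, K562 pellets were dounce-homogenised in PBS pH 7.4 with 1 mM MgCl2, giving crude material at 1 mg/mL protein. This was treated with 10 μM compound for 30 min, then heated in aliquots for 3 min over 48°C-58°C before pooling and addition of NP-40 to 0.5% at 4°C. Centrifugation at 21,000xg for 90 min left soluble protein in the supernatant, which TMTpro 16plex LC-MS/MS quantified with equalised channel sums. Results are log-two fold changes in thermal stability compared with solvent controls, from duplicates.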

[2] = compound: C/C(=N\NC(=O)C1=CC(=CC=C1)S(=O)(=O)N2CCOCC2)/C3=C(C=CC(=C3)Cl)O
Procedure, shortened: as §1

[3] = compound: C1=CC(=CC=C1C2=NC3=C(N2)C=C(C=C3)C(=O)N)OC4=CC=C(C=C4)Cl
Procedure, shortened: as §1

[4] = compound: C1=CC2=C(C=CC(=C2)/C=C\3/C(=O)NC(=NCC4=CC=CS4)S3)N=C1
Procedure, shortened: as §1

[5] = compound: C1=CC2=NC=CN=C2C=C1/C=C/3\C(=O)NC(=O)S3
Procedure, shortened: as §1

[6] = compound: C1=CC=C(C=C1)C2=NC(=C(N2)C3=CC=NC=C3)C4=CC(=C(C=C4)Cl)O
Procedure, shortened: as §1

[7] = compound: C1=CC=C2C(=C1)C3=NNC4=CC=CC(=C43)C2=O
Procedure, shortened: as §1

[8] = compound: C1CCN(C1)C(=O)NC2=CC=CC(=C2)NC3=NC=C(C(=N3)NCCC4=CN=CN4)Br
Procedure, shortened: as §1

[9] = compound: C1CN(CCC1(CC2=CC=C(C=C2)Cl)N)C3=NC=NC4=C3C=CN4
Procedure, shortened: as §1

[10] = compound: C1COCCN1CCN2C3=CC=CC=C3N=C2NC(=O)C4=CC(=CC=C4)[N+](=O)[O-] [IRAK-1-4 Inhibitor I]
Procedure, shortened: as §1

[11] = compound: C=CC(=O)N1CCC[C@@H](n2nc(-c3ccc(Oc4ccccc4)cc3)c3c(N)ncnc32)C1 [ibrutinib]
Procedure, shortened: as §1

[12] = compound: CC(=O)c1cnc2ccc(-c3cc(Cl)c(O)c(Cl)c3)nc2c1N[C@H]1CC[C@H](CN(C)C)CC1
Procedure, shortened: as §1

[13] = compound: CC(C)(C)Cn1c(N)nc2ccc(-c3[nH]c(C(C)(C)C)nc3-c3ccc(F)cc3)nc21 [ralimetinib]
Procedure, shortened: as §1

[14] = compound: CC(C)(O)CC(=O)NCCn1ccc2ncnc(Nc3ccc(Oc4cccc(C(F)(F)F)c4)c(Cl)c3)c21
Procedure, shortened: as §1

[15] = compound: CC(C)C1=C2N=C(C=C(N2N=C1)NCC3=CC=CC=C3)NCCCCCCN
Procedure, shortened: as §1

[16] = compound: CC1=C(C(CC(=O)N1)C2=CC=C(C=C2)C(F)(F)F)C(=O)NC3=C(C=C4C(=C3)C=NN4)F
Procedure, shortened: as §1

[17] = compound: CC1=C(C2=C(C=C1)C(=O)C3=CC=CC=C3N2CCCN)C
Procedure, shortened: as §1

[18] = compound: CC1=C(C=C(C=C1)NC(=O)C2=CC(=CC=C2)C(C)(C)C#N)NC3=CC4=C(C=C3)N=CN(C4=O)C
Procedure, shortened: as §1

[19] = compound: CC1=C(C=C(C=C1)NC(=O)C2=CC(=CC=C2)N(C)C)NC(=O)C3=CC=C(C=C3)O
Procedure, shortened: as §1

[20] = compound: CC1=CC=C(C=C1)SC2=C3C=C(SC3=CN=C2)C(=O)N
Procedure, shortened: as §1

Measured: log2 fold change

ECPAS (UniProt Q5VYK3)
inactive: [1] 0.042 | [2] 0.002 | [3] 0.02 | [4] 0.018 | [5] 0.008 | [6] -0.014 | [7] -0.067 | [8] -0.005 | [9] 0.02 | [10] 0.009 | [11] -0.026 | [12] -0.006 | [13] 0.019 | [14] -0.025 | [15] -0.017 | [16] 0.002 | [17] -0.002 | [18] 0.01 | [19] 0.024 | [20] -0.009

EFNB1 (UniProt P98172)
inactive: [1] -0.012 | [2] 0.006 | [3] -0.011 | [4] -0.126 | [5] 0 | [6] -0.046 | [7] -0.161 | [8] -0.063 | [9] 0.07 | [10] 0.039 | [11] 0.108 | [12] -0.008 | [13] 0.001 | [14] -0.007 | [15] 0.055 | [16] -0.095 | [17] 0.061 | [18] 0.006 | [19] 0 | [20] -0.03

EEF1A1, A0A087WVQ9
inactive: [1] 0.029 | [2] -0.049 | [3] 0.054 | [4] -0.069 | [5] -0.016 | [6] -0.035 | [7] -0.072 | [8] -0.019 | [9] -0.001 | [10] 0.03 | [11] 0.085 | [12] 0.019 | [13] -0.006 | [14] 0.019 | [15] -0.007 | [16] 0.091 | [17] 0 | [18] -0.023 | [19] -0.006 | [20] 0.004

EHMT1 (UniProt Q9H9B1)
inactive: [1] 0.042 | [2] -0.033 | [3] 0.065 | [4] -0.011 | [5] -0.046 | [6] -0.018 | [7] -0.014 | [8] 0.005 | [9] -0.01 | [10] 0.028 | [11] 0.042 | [12] -0.007 | [13] 0.03 | [14] -0.03 | [15] 0.045 | [16] 0.001 | [17] -0.023 | [18] 0.032 | [19] 0.045 | [20] 0.024

EFL1 (UniProt Q7Z2Z2)
inactive: [1] -0.006 | [2] 0 | [3] -0.005 | [4] 0.002 | [5] 0.008 | [6] 0.001 | [7] -0.059 | [8] 0.01 | [9] 0.007 | [10] 0.015 | [11] 0.004 | [12] 0 | [13] -0.008 | [14] 0.005 | [15] -0.011 | [16] 0.012 | [17] 0.014 | [18] 0 | [19] 0.025 | [20] -0.009

EDRF1 (UniProt Q3B7T1)
inactive: [1] 0.015 | [2] -0.091 | [3] 0.014 | [4] 0.029 | [5] -0.051 | [6] -0.051 | [7] -0.108 | [8] -0.047 | [9] 0.042 | [10] 0.092 | [11] 0.065 | [12] 0.026 | [13] -0.011 | [14] -0.067 | [15] -0.008 | [16] 0.043 | [17] 0.009 | [18] 0.031 | [19] 0.039 | [20] 0.048

EHBP1L1 (UniProt Q8N3D4)
inactive: [1] 0.015 | [2] -0.021 | [3] -0.037 | [4] 0.051 | [5] -0.003 | [6] 0.016 | [7] -0.059 | [8] 0 | [9] 0.031 | [10] -0.006 | [11] 0.015 | [12] 0.041 | [13] 0.026 | [14] -0.007 | [15] -0.031 | [16] -0.001 | [17] -0.02 | [18] 0.004 | [19] -0.03 | [20] -0.012

EHD2 (UniProt Q9NZN4)
inactive: [1] 0.048 | [2] -0.167 | [3] -0.043 | [4] -0.063 | [5] 0.012 | [6] -0.002 | [7] -0.071 | [8] -0.004 | [9] 0.012 | [10] 0.01 | [11] -0.004 | [12] 0.035 | [13] 0.054 | [14] -0.027 | [15] -0.005 | [16] 0.066 | [17] 0.063 | [18] 0.019 | [19] 0.059 | [20] 0.017

DPY19L4 (UniProt Q7Z388)
inactive: [1] -0.058 | [2] 0.037 | [3] 0.016 | [4] 0.16 | [5] 0.013 | [6] 0.179 | [7] 0.06 | [8] -0.063 | [9] -0.094 | [10] 0.024 | [11] 0.157 | [13] -0.165 | [14] -0.078 | [15] 0.139 | [16] 0.066 | [17] 0.029 | [18] 0.16 | [19] 0.072

DPF1 isoform 2 (UniProt Q92782)
inactive: [1] 0.146 | [2] 0.079 | [3] -0.009 | [4] 0.215 | [5] -0.073 | [6] -0.019 | [7] 0.165 | [8] -0.041 | [9] -0.191 | [10] -0.019 | [11] -0.047 | [12] -0.018 | [13] 0.176 | [14] -0.059 | [15] -0.108 | [17] 0.077 | [18] -0.024 | [19] 0.04 | [20] 0.059

ECSIT (UniProt Q9BQ95)
inactive: [1] -0.001 | [2] 0.032 | [3] 0.015 | [4] 0.088 | [5] -0.04 | [6] -0.068 | [7] -0.057 | [8] 0.026 | [9] 0.014 | [10] 0.032 | [11] -0.056 | [12] -0.017 | [13] 0.05 | [14] -0.083 | [15] 0.025 | [16] 0.01 | [17] -0.029 | [18] 0.063 | [19] -0.062 | [20] -0.017

DYNLT1 (UniProt P63172)
inactive: [1] 0.073 | [2] -0.178 | [3] 0.084 | [4] -0.031 | [5] 0.086 | [6] 0.071 | [7] -0.017 | [8] -0.125 | [9] 0.06 | [10] 0.017 | [11] 0.077 | [12] 0.041 | [13] 0.017 | [14] -0.107 | [15] -0.089 | [16] -0.011 | [17] 0.018 | [18] -0.01 | [19] 0.081 | [20] 0.028

Reprinted at random: 2 records from the list, in no set order.
ECPAS (UniProt Q5VYK3)
inactive: [1] 0.042 | [2] 0.002 | [3] 0.02 | [4] 0.018 | [5] 0.008 | [6] -0.014 | [7] -0.067 | [8] -0.005 | [9] 0.02 | [10] 0.009 | [11] -0.026 | [12] -0.006 | [13] 0.019 | [14] -0.025 | [15] -0.017 | [16] 0.002 | [17] -0.002 | [18] 0.01 | [19] 0.024 | [20] -0.009

EFNB1 (UniProt P98172)
inactive: [1] -0.012 | [2] 0.006 | [3] -0.011 | [4] -0.126 | [5] 0 | [6] -0.046 | [7] -0.161 | [8] -0.063 | [9] 0.07 | [10] 0.039 | [11] 0.108 | [12] -0.008 | [13] 0.001 | [14] -0.007 | [15] 0.055 | [16] -0.095 | [17] 0.061 | [18] 0.006 | [19] 0 | [20] -0.03

Following part.

EFR3A (UniProt Q14156)
inactive: [1] 0.016 | [2] 0.039 | [3] 0.026 | [4] 0.051 | [5] 0.053 | [6] -0.019 | [7] 0.02 | [8] 0.149 | [9] -0.08 | [10] 0.014 | [11] 0.146 | [12] 0.117 | [13] -0.007 | [14] -0.021 | [15] 0.003 | [16] -0.109 | [17] 0.025 | [19] -0.03 | [20] 0.016

EEF1AKMT4 (UniProt P0DPD7)
inactive: [1] 0.057 | [2] 0.097 | [3] 0.073 | [4] 0.025 | [5] 0.039 | [6] -0.021 | [7] -0.081 | [8] -0.019 | [9] 0.08 | [10] 0.107 | [11] 0.023 | [12] -0.012 | [13] -0.003 | [14] -0.053 | [15] 0.003 | [16] -0.006 | [17] -0.055 | [18] -0.029 | [19] -0.029 | [20] 0.069

ECHDC1 (UniProt Q9NTX5)
inactive: [1] -0.015 | [2] 0.007 | [3] 0.022 | [4] -0.032 | [5] -0.014 | [6] -0.001 | [7] 0.05 | [8] -0.003 | [9] 0.034 | [10] -0.016 | [11] -0.042 | [12] 0.006 | [13] 0.005 | [14] 0.014 | [15] -0.023 | [16] 0.007 | [17] 0.009 | [18] 0.026 | [19] -0.018 | [20] 0.005

DXO (UniProt O77932)
inactive: [1] -0.028 | [2] -0.075 | [3] 0.019 | [4] -0.01 | [5] 0 | [6] 0.013 | [7] -0.038 | [8] 0.076 | [9] 0.019 | [10] -0.242 | [11] -0.018 | [12] 0.057 | [13] 0.137 | [14] -0.038 | [15] -0.038 | [16] 0.005 | [17] -0.015 | [18] 0.029 | [19] -0.015 | [20] -0.003
